Results taken from PMC9997570.
No constants are given. Whether binding was seen depends on the method and setting. Binding seen in cells or lysates may run through a third protein. Here binding means that the protein was enriched with, or labelled near, the bait; the list need not be complete. For some of these results: No binding means not detected with the bait.

Amino acid sequences for entries named in this document (tags omitted). Residues count along the entry.
UniProt Q9NBK5: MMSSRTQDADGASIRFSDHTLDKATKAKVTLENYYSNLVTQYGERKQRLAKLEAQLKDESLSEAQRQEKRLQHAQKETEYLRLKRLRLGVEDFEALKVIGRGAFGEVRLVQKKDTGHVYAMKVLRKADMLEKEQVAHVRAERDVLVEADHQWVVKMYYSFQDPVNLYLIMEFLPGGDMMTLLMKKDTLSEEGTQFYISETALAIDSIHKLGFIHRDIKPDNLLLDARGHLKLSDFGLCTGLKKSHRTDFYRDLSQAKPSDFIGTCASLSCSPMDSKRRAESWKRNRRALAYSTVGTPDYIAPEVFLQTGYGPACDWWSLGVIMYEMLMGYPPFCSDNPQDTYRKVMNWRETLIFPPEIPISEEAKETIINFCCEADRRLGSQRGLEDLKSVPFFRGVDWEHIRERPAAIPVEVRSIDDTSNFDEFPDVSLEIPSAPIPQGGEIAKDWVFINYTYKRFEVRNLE
UniProt Q05825, residues 32-505: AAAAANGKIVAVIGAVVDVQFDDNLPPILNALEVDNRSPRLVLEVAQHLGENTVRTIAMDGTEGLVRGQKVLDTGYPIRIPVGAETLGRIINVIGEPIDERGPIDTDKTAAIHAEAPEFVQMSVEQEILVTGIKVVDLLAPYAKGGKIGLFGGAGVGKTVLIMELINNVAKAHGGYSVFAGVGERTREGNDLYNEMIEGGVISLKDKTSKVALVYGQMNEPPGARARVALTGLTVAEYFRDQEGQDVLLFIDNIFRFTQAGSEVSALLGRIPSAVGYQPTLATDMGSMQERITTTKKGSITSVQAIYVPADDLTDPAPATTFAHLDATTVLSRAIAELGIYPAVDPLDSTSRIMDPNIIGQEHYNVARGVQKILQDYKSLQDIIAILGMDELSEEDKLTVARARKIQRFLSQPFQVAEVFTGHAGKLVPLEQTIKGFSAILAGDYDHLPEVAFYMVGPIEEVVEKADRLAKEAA
UniProt Q9VT28: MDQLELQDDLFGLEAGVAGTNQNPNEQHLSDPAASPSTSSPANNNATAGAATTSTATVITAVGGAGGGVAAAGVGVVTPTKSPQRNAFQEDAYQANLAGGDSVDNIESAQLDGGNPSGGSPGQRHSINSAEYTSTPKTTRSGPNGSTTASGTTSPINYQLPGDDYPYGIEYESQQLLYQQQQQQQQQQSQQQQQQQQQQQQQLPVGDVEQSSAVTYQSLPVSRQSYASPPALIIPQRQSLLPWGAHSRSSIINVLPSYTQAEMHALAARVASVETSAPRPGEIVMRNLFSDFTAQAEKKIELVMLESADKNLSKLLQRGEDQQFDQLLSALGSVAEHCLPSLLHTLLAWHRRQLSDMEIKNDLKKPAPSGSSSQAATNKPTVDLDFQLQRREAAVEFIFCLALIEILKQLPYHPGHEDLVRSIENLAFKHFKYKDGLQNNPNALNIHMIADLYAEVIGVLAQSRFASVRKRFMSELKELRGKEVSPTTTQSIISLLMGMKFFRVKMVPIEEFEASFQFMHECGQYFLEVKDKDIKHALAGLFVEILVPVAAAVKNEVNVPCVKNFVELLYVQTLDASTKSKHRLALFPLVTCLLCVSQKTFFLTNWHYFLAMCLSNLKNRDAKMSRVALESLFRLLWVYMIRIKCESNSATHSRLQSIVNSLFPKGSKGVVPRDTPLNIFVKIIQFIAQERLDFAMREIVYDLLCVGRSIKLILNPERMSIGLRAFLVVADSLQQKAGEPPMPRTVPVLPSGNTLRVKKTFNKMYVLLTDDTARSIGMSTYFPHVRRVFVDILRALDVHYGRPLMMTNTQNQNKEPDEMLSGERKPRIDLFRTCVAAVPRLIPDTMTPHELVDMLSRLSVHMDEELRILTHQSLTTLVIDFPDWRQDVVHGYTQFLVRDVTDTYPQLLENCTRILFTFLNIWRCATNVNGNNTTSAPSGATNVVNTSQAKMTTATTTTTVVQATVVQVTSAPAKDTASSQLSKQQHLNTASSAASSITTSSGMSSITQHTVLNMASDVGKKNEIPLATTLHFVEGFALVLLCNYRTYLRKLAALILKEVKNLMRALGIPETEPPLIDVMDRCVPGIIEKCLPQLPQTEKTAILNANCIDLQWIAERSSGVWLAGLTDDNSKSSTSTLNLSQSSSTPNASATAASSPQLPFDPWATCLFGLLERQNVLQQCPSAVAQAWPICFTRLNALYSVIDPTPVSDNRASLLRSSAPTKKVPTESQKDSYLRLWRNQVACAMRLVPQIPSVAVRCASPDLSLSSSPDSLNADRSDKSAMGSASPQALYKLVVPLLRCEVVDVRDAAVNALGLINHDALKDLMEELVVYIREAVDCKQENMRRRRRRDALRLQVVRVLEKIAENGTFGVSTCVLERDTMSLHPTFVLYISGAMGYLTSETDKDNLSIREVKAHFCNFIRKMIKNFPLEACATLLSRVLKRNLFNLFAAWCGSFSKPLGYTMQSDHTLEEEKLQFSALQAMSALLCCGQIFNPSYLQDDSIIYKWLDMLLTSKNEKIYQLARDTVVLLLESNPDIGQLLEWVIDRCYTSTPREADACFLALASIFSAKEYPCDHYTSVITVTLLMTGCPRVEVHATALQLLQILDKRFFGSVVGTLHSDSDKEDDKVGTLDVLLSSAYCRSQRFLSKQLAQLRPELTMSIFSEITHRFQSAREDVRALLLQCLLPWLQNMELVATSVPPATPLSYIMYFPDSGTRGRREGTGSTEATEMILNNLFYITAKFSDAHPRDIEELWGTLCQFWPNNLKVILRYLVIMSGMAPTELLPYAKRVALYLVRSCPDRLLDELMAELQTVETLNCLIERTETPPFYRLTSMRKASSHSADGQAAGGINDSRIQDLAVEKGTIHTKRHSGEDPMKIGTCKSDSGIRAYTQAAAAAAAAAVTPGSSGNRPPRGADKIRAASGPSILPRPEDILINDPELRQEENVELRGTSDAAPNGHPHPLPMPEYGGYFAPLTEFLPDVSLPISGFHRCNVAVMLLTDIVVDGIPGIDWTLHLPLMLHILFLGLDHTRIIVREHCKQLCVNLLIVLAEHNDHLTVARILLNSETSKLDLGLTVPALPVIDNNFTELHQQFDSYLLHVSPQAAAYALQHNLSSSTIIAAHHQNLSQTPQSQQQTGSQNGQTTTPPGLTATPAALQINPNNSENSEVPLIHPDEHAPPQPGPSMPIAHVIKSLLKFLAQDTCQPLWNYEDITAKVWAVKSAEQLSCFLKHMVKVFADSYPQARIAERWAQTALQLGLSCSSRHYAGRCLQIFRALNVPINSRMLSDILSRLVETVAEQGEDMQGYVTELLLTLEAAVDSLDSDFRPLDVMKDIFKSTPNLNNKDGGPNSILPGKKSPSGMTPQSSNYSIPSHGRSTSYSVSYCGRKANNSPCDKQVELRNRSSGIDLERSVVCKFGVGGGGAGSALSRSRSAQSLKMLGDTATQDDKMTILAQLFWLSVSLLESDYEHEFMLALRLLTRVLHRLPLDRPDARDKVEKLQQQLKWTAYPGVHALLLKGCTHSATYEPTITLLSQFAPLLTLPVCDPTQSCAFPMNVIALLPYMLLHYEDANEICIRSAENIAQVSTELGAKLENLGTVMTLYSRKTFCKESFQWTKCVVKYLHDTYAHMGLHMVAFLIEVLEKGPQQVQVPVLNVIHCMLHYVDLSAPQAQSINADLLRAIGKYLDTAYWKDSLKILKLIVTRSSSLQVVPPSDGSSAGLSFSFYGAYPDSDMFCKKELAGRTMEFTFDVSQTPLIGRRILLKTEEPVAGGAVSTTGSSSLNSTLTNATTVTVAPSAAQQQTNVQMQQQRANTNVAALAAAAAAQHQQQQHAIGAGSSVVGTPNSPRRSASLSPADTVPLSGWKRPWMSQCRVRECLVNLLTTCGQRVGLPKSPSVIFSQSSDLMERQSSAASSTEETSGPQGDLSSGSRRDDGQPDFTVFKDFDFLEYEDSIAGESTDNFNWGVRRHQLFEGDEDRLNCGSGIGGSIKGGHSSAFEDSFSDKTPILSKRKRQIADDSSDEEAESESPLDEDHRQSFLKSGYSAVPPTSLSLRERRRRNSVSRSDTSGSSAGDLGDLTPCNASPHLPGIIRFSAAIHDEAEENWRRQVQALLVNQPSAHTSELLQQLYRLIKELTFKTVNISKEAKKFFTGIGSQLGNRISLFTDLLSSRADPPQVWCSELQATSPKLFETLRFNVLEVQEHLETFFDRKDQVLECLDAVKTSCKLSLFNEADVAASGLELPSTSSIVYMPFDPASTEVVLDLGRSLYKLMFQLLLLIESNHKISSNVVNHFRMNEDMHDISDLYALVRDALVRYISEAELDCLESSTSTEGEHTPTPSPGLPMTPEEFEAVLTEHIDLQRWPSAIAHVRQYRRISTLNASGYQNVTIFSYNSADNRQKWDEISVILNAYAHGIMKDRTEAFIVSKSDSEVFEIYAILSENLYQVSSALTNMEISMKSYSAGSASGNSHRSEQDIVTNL
UniProt P35381, residues 48-552: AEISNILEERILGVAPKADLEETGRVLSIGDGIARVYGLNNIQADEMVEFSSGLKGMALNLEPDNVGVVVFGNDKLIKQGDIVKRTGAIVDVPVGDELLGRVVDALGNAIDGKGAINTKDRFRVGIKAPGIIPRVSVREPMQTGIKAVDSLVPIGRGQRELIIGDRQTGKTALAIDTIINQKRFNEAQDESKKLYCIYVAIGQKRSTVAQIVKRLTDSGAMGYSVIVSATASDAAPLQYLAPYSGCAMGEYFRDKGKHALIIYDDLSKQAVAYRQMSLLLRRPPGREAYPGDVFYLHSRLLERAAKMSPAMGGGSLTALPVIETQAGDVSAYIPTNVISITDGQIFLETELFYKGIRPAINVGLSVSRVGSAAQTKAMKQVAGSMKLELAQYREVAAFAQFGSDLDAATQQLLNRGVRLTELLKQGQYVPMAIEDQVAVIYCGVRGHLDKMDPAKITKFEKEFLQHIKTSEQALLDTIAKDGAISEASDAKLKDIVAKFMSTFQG

B1: Mats (protein, UniProt Q95RA8 1-219)
chain: MDFLFGSRSSKTFKPKKNIPEGTHQYDLMKHAAATLGSGNLRNAVALPDGEDLNEWVAVNTVDFFNQINMLYGTITEFCTEETCGIMSAGPKYEYHWADGLTVKKPIKCSAPKYIDYLMTWVQDQLDDETLFPSKIGVPFPKNFHSSAKTILKRLFRVYAHIYHQHFTEVVTLGEEAHLNTSFKHFIFFVQEFNLIERRELAPLQELIDKLTAKDERQI
B2: Mob3 (protein, UniProt Q9VL13 1-220)
chain: MALNGFLEFFQKGKTFRPKKPFASGTIRYSLHKQAQASLQSGINLRQVVRLPQGENLNDWLAVHVVDFFNRINLIYGTVSEFCNETTCPTMSGGSRYEYLWADGDLYKKPTALSAQKYIEHLMDWIETQINNEAVFPVSTDVPFPKNFIAISRKILTRLFRVFVHVYIHHFDRIVSIGAEAHVNACYKHFYYFVQEFDMISAKELEPLQEMTSRICKDKD
B3: Mob2 (protein, UniProt Q8IQG1 1-566)
chain: MNWAISNLTGGNRVSRAILVRYSSVPLADATNDGSSTAPQTPTASTPRPSSSHSSLSSTFAATFLHASSRHIPGRAVPRQNANGQNGGKGNASGAGGGAGGGGAGGASGGTGGTGAQAAGQLSLPLDVEETVTCFCRKARRKERDGDQNSTDTKLYLEESVLERKLPEADLKALVDLPAGLDYNEWLASHTLALFEHVNLVYGTISEFCTQSGCADMTGPGNRTYLWFDEKGKKTRVAAPQYIDYVMTFTQKTVSDESIFPTKYANEFPGSFESIARKILRLQFHVIAHLYAAHFREIALLGLHTHLNLTFAHLTALHRRFNLIDEKETDVLRDLEVALRLTDDTGGCQDATSTTSSVHDHSHSGDLQHQSLQQQQQHHNSSSNSTSSAEAFHVNSQSNNGSTSASASVSLIDGDAVAPPICTQPEAGAGCKPAGSSGLLGGILGDLTSGEFGDTTRYCTSAVPQAAAAAGAGVGGTAIGATDAAALNNGAGALHLNFSNNNNNNHNLNHHHHHHHHHGHHGHHHAAQQQQQHSGLIQCNAAGGGGNATGVATGGATAAASSTTTA
B4: Phosphofructokinase (Pfk) (enzyme, UniProt P52034 1-788)
chain: MNSEINQRFLARGSQKDKGLAVFTSGGDSQGMNAAVRACVRMAIYLGCKVYFIREGYQGMVDGGDCIQEANWASVSSIIHRGGTIIGSARCQDFRERQGRLKAANNLIQRGITNLVVIGGDGSLTGANLFRQEWSSLLDELVKNKTITTEQQEKFNVLHIVGLVGSIDNDFCGTDMTIGTDTALHRIIEAIDAISSTAYSHQRTFIMEVMGRHCGYLALVGGLACEADFIFIPEMPPKVDWPDRLCSQLAQERSAGQRLNIVIVAEGAMDREGHPITAEDVKKVIDERLKHDARITVLGHVQRGGNPSAFDRILACRMGAEATLALMEATKDSVPVVISLDGNQAVRVPLMECVERTQAVAKAMAEKRWADAVKLRGRSFERNLETYKMLTRLKPPKENFDADGKGIEGYRLAVMHIGAPACGMNAAVRSFVRNAIYRGDVVYGINDGVEGLIAGNVRELGWSDVSGWVGQGGAYLGTKRTLPEGKFKEIAARLKEFKIQGLLIIGGFESYHAAGQIADQRDNYPQFCIPIVVIPSTISNNVPGTEFSLGCDTGLNEITEICDRIRQSAQGTKRRVFVIETMGGYCGYLATLAGLAGGADAAYIYEEKFSIKDLQQDVYHMASKMAEGVSRGLILRNEKASENYSTDFIYRLYSEEGKGLFTCRMNILGHMQQGGSPTPFDRNMGTKMAAKCVDWLAAQIKANIDANGVVNCKSPDTATLLGIVSRQYRFSPLVDLIAETNFDQRIPKKQWWLRLRPLLRILAKHDSAYEEEGMYITVEEECDTDAVA
B5: Mob4 (protein, UniProt Q7K0E3 1-223)
chain: MKMADGSTILRRNRPGTKSKDFCRWPDEPLEEMDSTLAVQQYIQQLIKRDPSNVELILTMPEAQDEGVWKYEHLRQFCMELNGLAVRLQKECSPSTCTQMTATDQWIFLCAAHKTPKECPAIDYTRHTLDGAACLLNSNKYFPSRVSIKESSVTKLGSVCRRVYRIFSHAYFHHRRIFDEFEAETYLCHRFTHFVTKYNLMSKENLIVPINVGENAAPGESEA
B6: NADH dehydrogenase (ubiquinone) 75 kDa (ND75) (protein, UniProt Q94511 28-731)
chain: SAMVAQTPAKAPEKIEVFVDDIPVQVVPGTTVLQAAAQIGVEIPRFCYHERLAVAGNCRMCLVEVEKSPKPVAACAMPVMKGWRIKTNSDLTRKAREGVMEFLLMNHPLDCPICDQGGECDLQDQAMAFGSDRSRFTDINYTGKRAVEDKDIGPLVKTIMTRCIHCTRCVRFASEIAGVDDLGTTGRGNDMQIGTYVEKLFLTELSGNVIDLCPVGALTNKPYSFVARPWEIRKVSSIDVLDAVGSNIVVSTRTNEVLRILPRENEDVNEEWLADKSRFACDGLKRQRLVAPMVRMPNGELQAVEWEGALIAVAKAIKAAGGQIAGISGQLADLEAQVALKDLLNRLGSEVVATEQGFIAGGTDNRANYLLNSTIAGLEEADAVLLVGTNPRYEAPLVNTRLRKAYVHNELQIASIGPKIDLSYDHENLGADAALVKDVCSGAHAFSKVLEGAKKPAIIIGADLLERADGAAIHATVAEYCKKLKKPNWNPFNVLQTNAAQVGALDVGYKAGAQTAVKAQPKVLFLLNADAGKVTREQLPKDCFVVYIGSHGDNGASIADAVLPGAAYTEKQGIYVNTEGRPQQTLPGVSPPGMAREDWKILRALSEVVGKPLPYDNLDELRNRLEDVAPHLTRLGQLEPAGDAGAAGTISKSIGGGAIDIKLKELRDYFMTDAISRASPTMAKCISAVNKQQRENEAKQSVAI
B7: Mouse protein 25 (Mo25) (protein, UniProt P91891 1-339)
chain: MPLFGKSQKSPVELVKSLKEAINALEAGDRKVEKAQEDVSKNLVSIKNMLYGSSDAEPPADYVVAQLSQELYNSNLLLLLIQNLHRIDFEGKKHVALIFNNVLRRQIGTRSPTVEYICTKPEILFTLMAGYEDAHPEIALNSGTMLRECARYEALAKIMLHSDEFFKFFRYVEVSTFDIASDAFSTFKELLTRHKLLCAEFLDANYDKFFSQHYQRLLNSENYVTRRQSLKLLGELLLDRHNFTVMTRYISEPENLKLMMNMLKEKSRNIQFEAFHVFKVFVANPNKPKPILDILLRNQTKLVDFLTNFHTDRSEDEQFNDEKAYLIKQIKELKPLPEA

Molecular target: Tricornered (Trc) kinase, Trc-GFP fusion protein (Drosophila melanogaster) (UniProt Q9NBK5)
Assay: affinity purification with mass spectrometry; Trc-GFP complexes purified from lysates of 0–16 hr embryos (da-GAL4 x UAS-Trc-GFP), nanoLC-MS/MS; two biological replicates compared with two GFP-alone controls using SAINT

binding | Molecule
binds | ATP synthase-beta (ATPsyn-beta, the ATP synthase-beta subunit) (from UniProt Q05825 32-505)
binds | Furry (Fry) (from UniProt Q9VT28 1-3479)
binds | Bellwether (Blw, the ATP synthase alpha subunit) (from UniProt P35381 48-552)

Molecular target: Tricornered (Trc) kinase, Trc-GFP fusion protein (Drosophila melanogaster) (UniProt Q9NBK5)
Assay: as above
Remark: another data set of the same source

binding | Molecule
binds | B1
no binding | B2
binds | B3
binds | B4
binds | B5
binds | B6
binds | B7
